# Results: PubChem BioAssay AID504834 (National Center for Advancing Translational Sciences (NCATS), 2011)
# The campaign covered roughly 320,000 compounds. About 22,000 (6.9%) were called active. Inconclusive means that the source gave no clear call. Such entries were picked first, then a sample of the others. Calls come from the whole dose curve; as a rule, active = well fitted inhibition curve with a large enough effect; inconclusive = small, poorly fitted or top-dose-only effect, or another doubt; inactive = no such curve, though single readings can be large or run the other way. A potency beside an inconclusive call is a rough fit, not a confirmed value.
# Test: Primary qHTS for delayed death inhibitors of the malarial parasite plastid, 96 hour incubation
# Details: P. falciparum luciferase reporter growth; series mostly up to 28.7 µM; activity change, negative = inhibition: at the top concentration
# How it was run: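 Plates of compound plus infected erythrocytes (2% hematocrit, 0.05% parasitemia final) incubate 96 hours, 37 C, 5% CO2. Detection reagent added; reduced luminescence from the parasites' luciferase reporter flags inhibition.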
# % is set by controls: 0 for no effect and ±100 for the full control effect; potency is the fitted concentration of half-maximal effect.
Compound,"activity change, negative = inhibition",Potency
COc1ccccc1NC(=O)C1CCCN(c2cnccn2)C1 (configuration not stated),inactive: 42%,–
CCC(C)N(C(=O)CSc1nc(C)c(C)c(C)c1C#N)C1CCS(=O)(=O)C1 (configuration not stated),–,"inconclusive: 18.5 µM [inhibitor, single point]"
CC(C)N(C(=O)CSc1nnc(Cc2csc(Nc3ccccc3)n2)o1)C(C)C,inactive: 3.25%,–
CCC1(c2ccc(OC)cc2)NC(=O)N(CC(=O)NC2CCCCC2C)C1=O (configuration not stated),–,"inconclusive: 5.22 µM [inhibitor, partial curve, poor fit]"
O=C(c1ccc(-c2cccc([N+](=O)[O-])c2)o1)N1CCN(c2ccc([N+](=O)[O-])cc2)CC1,–,"inconclusive: 1.04 µM [inhibitor, partial curve]"
O=C(C1CCN(S(=O)(=O)c2ccc(Cl)cc2)CC1)N1CCN(c2ccccn2)CC1,–,"inconclusive: 18.5 µM [inhibitor, single point]"
C/C(Cl)=C/Cn1c(=O)c2c(nc(Br)n2Cc2ccccc2)n(C)c1=O,–,"inconclusive: 4.15 µM [inhibitor, single point]"
CCOc1cc(CNS(=O)(=O)c2cn(C)cn2)cc(OCC)c1OCC,–,"inconclusive: 18.5 µM [inhibitor, single point]"
COc1ccc(C(=O)C2CCCN(C(=O)CCC3=NNC(=O)CC3)C2)c(C)c1 (configuration not stated),–,active: 10.4 µM
CCC(=O)Nc1nc2ccccc2n1Cc1ccccc1Cl,–,active: 2.94 µM
O=C(NCc1cccc(CNC(=O)Nc2cccc(O)c2)c1)Nc1cccc(O)c1,–,"inconclusive: 3.29 µM [inhibitor, full curve]"
C=C1CCC(O)C/C1=C/C=C1\CCC[C@]2(C)[C@@H]([C@H](C)/C=C/[C@H](C)C(C)C)CC[C@@H]12 (some centres not stated),–,"inconclusive: 15.1 µM [inhibitor, single point]"
CCN(CC)c1cnn(C/C(=N\OC)c2ccc(Cl)cc2)c(=O)c1Br,–,"inconclusive: 7.38 µM [inhibitor, single point]"
Cc1ccccc1CC(=O)OCC(=O)Nc1ccc(C)c(S(=O)(=O)N2CCCCC2)c1,–,"inconclusive: 10.4 µM [inhibitor, single point]"
CC(=O)N1c2ccc(S(=O)(=O)N(C)CC(=O)Nc3cccc(C)c3)cc2CC1C (configuration not stated),–,"inconclusive: 2.62 µM [inhibitor, full curve, poor fit]"
CC(C)=CC(=O)OCC(=O)Nc1cccc([N+](=O)[O-])c1,inactive: -1.92%,–
CSc1ccc(C(=S)N2CCCCCC2)cc1,–,"inconclusive: 18.5 µM [inhibitor, single point]"
CC1Cc2ccccc2N1S(=O)(=O)c1cccc(C(=O)N2Cc3ccccc3CC2C(N)=O)c1 (configuration not stated),–,active: 13.1 µM
COc1ccc(OC)c(C(=O)c2ccc(C(=O)N3CCCCC3)cc2)c1,–,"inconclusive: 2.62 µM [inhibitor, partial curve, poor fit]"
C=CCNC(=S)N/N=C/c1cn(-c2ccccc2)nc1-c1ccc(OC)cc1,inactive: 10.8%,–
c1ccc(Cn2nnnc2C(c2cccs2)N2CCSCC2)cc1 (configuration not stated),–,"inconclusive: 18.5 µM [inhibitor, single point]"
C=CCNc1nc(N)c([N+](=O)[O-])c(NC2CCCCC2)n1,–,active: 10.4 µM
CCOc1cc(/C=C2/C(=O)NN(c3cccc(Cl)c3)C2=O)ccc1O,–,"inconclusive: 11.7 µM [inhibitor, single point]"

Compound,"activity change, negative = inhibition",Potency
O=C(CCCC1=NS(=O)(=O)c2ccccc2N1)OCc1ccc(Cl)cc1,–,"inconclusive: 18.5 µM [inhibitor, single point]"
C=CCOc1ccc(C2C(C#N)=C(N)N(Nc3ccccc3)C3=C2C(=O)CC(C)(C)C3)cc1OC (configuration not stated),–,active: 8.28 µM
CCN(CCCC(=O)c1ccc(F)cc1)CCc1ccccc1,–,"inconclusive: 18.5 µM [inhibitor, single point]"
O=C(NNc1nc(-c2ccc(F)cc2)cs1)c1ccccc1,–,active: 8.28 µM
Cc1cccc(OCC(O)Cn2c(N3CCCCC3)nc3c2c(=O)[nH]c(=O)n3C)c1 (configuration not stated),–,"inconclusive: 9.28 µM [inhibitor, partial curve]"
CCCOC(=O)C1C2C=CC(C3CC23)C1C(=O)OCC(=O)c1ccccc1 (configuration not stated),inactive: -1.5% [at 5.75 µM],–
COc1ccc(-c2noc(CCC(=O)Nc3nc4ccccc4s3)n2)cc1,inactive: 38.7%,–
CC(=O)c1ccc(OCCCC(=O)N2CCN(S(=O)(=O)c3ccc(C(C)C)cc3)CC2)cc1,–,active: 5.22 µM
CCOc1ccc(OCC(=O)NCCc2nc3ccccc3[nH]2)cc1,–,"inconclusive: 0.0329 µM [inhibitor, full curve, poor fit]"
CC(C)CN1CCN(Cc2ccc3ncccc3c2)CC1CCO (configuration not stated),–,"inconclusive: 11.7 µM [inhibitor, single point]"
COc1ccc(N2CCN(C(CNC(=O)C3CCCCC3)c3ccco3)CC2)cc1 (configuration not stated),–,"inconclusive: 10.4 µM [inhibitor, partial curve]"
CCOc1ccc(-n2cnc3sc4c(c3c2=O)CCCC4)cc1,inactive: 19.4%,–
CC(C)(C)[C@H]1CCC(=O)N([C@H](CSc2ccc(Br)cc2)Cc2ccccc2)CC1,–,"inconclusive: 6.57 µM [inhibitor, partial curve, poor fit]"
CCOc1ccc(CCn2c(-c3ccco3)nc3ccccc3c2=O)cc1OCC,–,"inconclusive: 3.7 µM [inhibitor, partial curve, poor fit]"
Cc1sc2ncnc(SCC(=O)Nc3nc(-c4ccc(F)c(F)c4)cs3)c2c1C,inactive: 11.2%,–
Cc1cccc(NC(=S)NCCc2ccc(S(N)(=O)=O)cc2)c1C,–,"inconclusive: 18.5 µM [inhibitor, single point]"
CN(Cc1ccc(C(C)(C)C)cc1)C(=O)C1CSC2(C)CCC(=O)N12 (configuration not stated),–,"inconclusive: 18.5 µM [inhibitor, single point]"
O=C(NCCc1ccccc1)C(=O)NCC1OCCN1S(=O)(=O)c1ccc(Cl)cc1 (configuration not stated),inactive: 26.7%,–
Cc1cc(=O)nc2c3ccccc3n(CC(=O)NCCCN3CCCC3=O)n12,–,"inconclusive: 13.1 µM [inhibitor, single point]"
CC(=O)c1ccc(-c2cc([C@H]3[C@H]4C=CC[C@@H](C)[C@@H]4C(=O)N3Cc3ccccc3)ccc2F)cc1,–,"inconclusive: 11.7 µM [inhibitor, single point]"
Cc1ccc2c(C)c(C(=O)N3CCC(N4CCC(C(=O)NC5CC5)CC4)CC3)oc2c1,–,"inconclusive: 9.28 µM [inhibitor, partial curve]"
Cc1cc(N2CCN(C)CC2)n2nc(-c3ccc(Cl)cc3)nc2n1,inactive: -11.7%,–
CCc1cc(=O)oc2cc(C)cc(OC(C)C(=O)NC3CCN(Cc4ccccc4)CC3)c12 (configuration not stated),–,"inconclusive: 4.15 µM [inhibitor, partial curve]"

Compound,"activity change, negative = inhibition",Potency
CCOC(=O)c1cc(C(C)(C)C)n(CCCN2CCOCC2)c1C,–,"inconclusive: 18.5 µM [inhibitor, single point]"
Cc1cccc(NC(=S)/N=C(\N)Nc2nc(C)c3cc(C)ccc3n2)c1,–,"inconclusive: 13.1 µM [inhibitor, partial curve, poor fit]"
Cc1ccc2nc(C3CCN(S(=O)(=O)c4ccc5ccccc5c4)CC3)[nH]c2c1,–,"inconclusive: 18.5 µM [inhibitor, single point]"
O=c1[nH]nc(SCCS(=O)(=O)c2ccc(F)cc2)n1-c1ccccc1,inactive: -23.1%,–
O=C(Nc1ccon1)c1nc[nH]c1C(=O)NCc1ccccc1,–,"inconclusive: 4.15 µM [inhibitor, partial curve, poor fit]"
Cc1ccc(S(=O)(=O)NCCc2cn3nc(C)c(C)nc3n2)cc1C,inactive: 22.7%,–
CCCCCCNC(=O)N[C@@H](Cc1ccc(O)cc1)C(=O)NCCC[C@H]1CN2C(=NC[C@H]2C)N1CC1CCC1,–,active: 3.29 µM
COc1ccccc1-c1nnc2sc(-c3ccc(N(C)C)cc3)nn12,–,active: 11.7 µM
Cc1nc(SCC(=O)N2CCc3ccccc32)n[nH]1,–,"inconclusive: 0.0033 µM [inhibitor, full curve, poor fit]"
COc1ccc(CCC(=O)NNC(=O)Nc2ccc(C(C)=O)cc2)cc1,inactive: 59%,–
O=C(O)COc1ccc2nsnc2c1Cl,–,"inconclusive: 8.28 µM [inhibitor, partial curve]"
Cc1c(C(=O)NCCN(C)C)oc2ccc(S(=O)(=O)N3CCCC3)cc12,–,"inconclusive: 7.38 µM [inhibitor, partial curve]"
CC(Oc1ccc(F)cc1)c1nnc(SCC(=O)N(c2ccccc2)C2CCS(=O)(=O)C2)o1 (configuration not stated),–,"inconclusive: 9.28 µM [inhibitor, single point]"
CCOC(=O)c1c(-c2ccc(C)cc2)csc1NC(=S)NC(=O)c1ccccc1,–,active: 7.38 µM
Cn1c(=O)n(C)c2cc(NC(=O)COc3ccccc3)ccc21,–,"inconclusive: 2.33 µM [inhibitor, full curve, poor fit]"
CCC/C=C(\CCC)C(NC(=O)OCC(C)C)c1ccc(C(=O)OC)cc1 (configuration not stated),–,"inconclusive: 18.5 µM [inhibitor, single point]"
C1=C(N2CCOCC2)/C(=C/c2nc3ccccc3[nH]2)CC1,–,"inconclusive: 16.5 µM [inhibitor, single point]"
CC(C)C(=O)N1CCC2(CC1)Oc1ccc(F)cc1C(=O)C21CC(c2ccccc2)=NO1 (configuration not stated),–,"inconclusive: 16.5 µM [inhibitor, single point]"
O=C(CSc1nnc(NC(=O)c2c(F)cccc2Cl)s1)Nc1ccccc1F,inactive: -1.03%,–
N#CCc1ccc(NC(=O)Nc2cccc(Cl)c2)cc1,inactive: 0%,–
Cc1ccc[n+](/C(C(=S)NCc2ccco2)=C(/[O-])c2ccccc2Cl)c1,–,"inconclusive: 18.5 µM [inhibitor, single point]"

# Exported bar-delimited: part of the list above.
Compound | activity change, negative = inhibition | Potency
Cc1ccc(S(=O)(=O)NCCc2cn3nc(C)c(C)nc3n2)cc1C | inactive: 22.7% | –
CCCCCCNC(=O)N[C@@H](Cc1ccc(O)cc1)C(=O)NCCC[C@H]1CN2C(=NC[C@H]2C)N1CC1CCC1 | – | active: 3.29 µM
COc1ccccc1-c1nnc2sc(-c3ccc(N(C)C)cc3)nn12 | – | active: 11.7 µM
Cc1nc(SCC(=O)N2CCc3ccccc32)n[nH]1 | – | inconclusive: 0.0033 µM [inhibitor, full curve, poor fit]
